Reference: US11512224B2, “Water-based coating composition and production method of the same” (TOYOTA JIDOSHA KABUSHIKI KAISHA, priority 2018, dated 2022)
Some entries share one result that the patent states for a list of compounds. At least one compound was matched to its structure with a doubt left.

Assay: Solubility in water at 20° C.
Conditions: under atmospheric pressure at 20° C.

Question: With `CCCCCCCC[O-].CCCCCCCC[O-].CCCCCCCC[O-].CCCCCCCC[O-].[Ti+4]` [tetraoctyl titanate] as the compound, how does the “Solubility of curing catalyst in water” value read?
Answer: ≤ 0.1 g/100 ml
